For at least one entry, the source does not settle the construct or the ends of the probe.

Chains of the proteins cited; added tags and fusions are not shown. A line that says so, or that is headed by a name, gives the form on record, which may keep a tag or linker.
PCSK9 (Macaca mulatta), one chain, as listed by the source, chain 2 of 2: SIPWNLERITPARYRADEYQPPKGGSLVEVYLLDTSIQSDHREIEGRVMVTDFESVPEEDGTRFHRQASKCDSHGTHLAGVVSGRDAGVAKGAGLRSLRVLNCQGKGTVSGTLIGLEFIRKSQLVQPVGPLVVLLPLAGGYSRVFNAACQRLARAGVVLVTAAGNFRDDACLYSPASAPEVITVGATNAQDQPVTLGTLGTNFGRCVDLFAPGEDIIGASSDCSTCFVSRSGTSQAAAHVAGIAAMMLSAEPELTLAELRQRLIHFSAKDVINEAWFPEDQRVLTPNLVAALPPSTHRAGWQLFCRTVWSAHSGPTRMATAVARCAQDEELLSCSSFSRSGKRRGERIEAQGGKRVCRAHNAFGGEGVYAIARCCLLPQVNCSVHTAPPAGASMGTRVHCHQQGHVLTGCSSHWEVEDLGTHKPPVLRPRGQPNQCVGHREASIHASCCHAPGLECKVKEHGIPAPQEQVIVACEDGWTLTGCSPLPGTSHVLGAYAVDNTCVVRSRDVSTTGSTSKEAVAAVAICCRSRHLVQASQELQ
PCSK9 (Rattus norvegicus), one chain, as listed by the source, chain 1 of 2: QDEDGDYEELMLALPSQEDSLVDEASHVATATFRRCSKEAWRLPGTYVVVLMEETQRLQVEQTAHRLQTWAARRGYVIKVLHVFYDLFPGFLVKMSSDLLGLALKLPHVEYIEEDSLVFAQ
PCSK9 (Homo sapiens), one chain, as listed by the source, chain 1 of 2: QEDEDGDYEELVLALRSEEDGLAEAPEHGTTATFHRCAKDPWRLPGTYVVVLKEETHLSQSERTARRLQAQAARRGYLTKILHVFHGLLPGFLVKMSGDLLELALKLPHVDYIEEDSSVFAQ
PCSK9 (Mus musculus), one chain, as listed by the source, chain 2 of 2: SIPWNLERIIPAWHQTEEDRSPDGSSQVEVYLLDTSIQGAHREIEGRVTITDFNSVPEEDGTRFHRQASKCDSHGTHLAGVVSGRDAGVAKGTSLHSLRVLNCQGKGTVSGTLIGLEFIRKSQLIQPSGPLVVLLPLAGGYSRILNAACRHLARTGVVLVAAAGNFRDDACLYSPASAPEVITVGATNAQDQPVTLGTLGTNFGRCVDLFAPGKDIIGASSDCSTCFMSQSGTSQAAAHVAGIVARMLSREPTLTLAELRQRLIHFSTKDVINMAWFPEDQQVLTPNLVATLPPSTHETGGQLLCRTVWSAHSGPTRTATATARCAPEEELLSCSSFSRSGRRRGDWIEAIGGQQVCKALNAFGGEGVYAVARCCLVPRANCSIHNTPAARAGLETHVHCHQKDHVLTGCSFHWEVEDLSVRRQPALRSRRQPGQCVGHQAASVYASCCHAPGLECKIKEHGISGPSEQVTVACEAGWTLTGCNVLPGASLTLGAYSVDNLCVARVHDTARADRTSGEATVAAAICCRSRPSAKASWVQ
PCSK9 (Homo sapiens), one chain, as listed by the source, chain 2 of 2: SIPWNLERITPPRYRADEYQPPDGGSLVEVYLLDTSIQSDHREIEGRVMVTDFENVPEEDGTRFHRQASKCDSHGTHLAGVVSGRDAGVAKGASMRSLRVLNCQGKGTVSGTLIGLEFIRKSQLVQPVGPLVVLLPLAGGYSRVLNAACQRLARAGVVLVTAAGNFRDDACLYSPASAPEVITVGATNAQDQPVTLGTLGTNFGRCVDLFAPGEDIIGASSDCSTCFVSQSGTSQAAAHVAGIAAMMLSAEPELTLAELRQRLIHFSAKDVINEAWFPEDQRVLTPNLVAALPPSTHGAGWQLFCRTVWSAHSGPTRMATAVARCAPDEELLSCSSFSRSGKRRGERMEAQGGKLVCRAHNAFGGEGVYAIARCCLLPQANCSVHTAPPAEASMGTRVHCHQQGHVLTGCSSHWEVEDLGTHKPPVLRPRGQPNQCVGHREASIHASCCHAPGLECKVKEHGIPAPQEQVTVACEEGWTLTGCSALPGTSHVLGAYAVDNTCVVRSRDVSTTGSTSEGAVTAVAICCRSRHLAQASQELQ
PCSK9 (Macaca mulatta), one chain, as listed by the source, chain 1 of 2: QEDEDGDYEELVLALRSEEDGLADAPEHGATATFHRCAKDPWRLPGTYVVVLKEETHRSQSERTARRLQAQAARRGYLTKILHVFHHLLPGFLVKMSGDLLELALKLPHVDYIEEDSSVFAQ
PCSK9 (Mus musculus), one chain, as listed by the source, chain 1 of 2: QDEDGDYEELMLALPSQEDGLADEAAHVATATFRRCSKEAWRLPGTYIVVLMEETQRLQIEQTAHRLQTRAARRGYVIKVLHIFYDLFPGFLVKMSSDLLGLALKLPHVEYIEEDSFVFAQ
PCSK9 (Rattus norvegicus), one chain, as listed by the source, chain 2 of 2: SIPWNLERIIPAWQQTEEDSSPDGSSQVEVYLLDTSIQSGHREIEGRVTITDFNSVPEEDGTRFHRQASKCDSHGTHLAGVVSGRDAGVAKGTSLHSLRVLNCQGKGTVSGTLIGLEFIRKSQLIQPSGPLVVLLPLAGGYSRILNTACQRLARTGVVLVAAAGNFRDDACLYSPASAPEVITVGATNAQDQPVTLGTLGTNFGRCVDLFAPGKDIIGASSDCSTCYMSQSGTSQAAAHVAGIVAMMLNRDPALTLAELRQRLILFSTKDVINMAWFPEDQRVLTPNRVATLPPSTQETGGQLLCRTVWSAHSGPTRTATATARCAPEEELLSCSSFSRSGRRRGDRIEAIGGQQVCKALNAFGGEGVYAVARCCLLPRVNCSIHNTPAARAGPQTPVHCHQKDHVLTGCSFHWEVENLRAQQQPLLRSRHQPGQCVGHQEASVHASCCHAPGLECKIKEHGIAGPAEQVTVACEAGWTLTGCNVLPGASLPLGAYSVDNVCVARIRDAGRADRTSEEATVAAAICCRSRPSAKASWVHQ

For orientation: Kd means the equilibrium constant for the complex coming apart. The EC50 is the concentration at which the effect is half-maximal. By IC50 is commonly meant the concentration that inhibits the measured activity by half.

Data set [1] relates to PCSK9 (Homo sapiens). In words: filter binding. To be noted: purified recombinant protein, single-stranded DNA.
The test system of the next data set is PCSK9 (Macaca mulatta). In words: filter binding. As to conditions: all C = PP-dC (5-position), all U = Nap-dU (5-position); aptamer identity per figure legend; text names 11733-198; purified recombinant protein; single-stranded DNA.
The next data set deals with PCSK9 (Mus musculus). In words: filter binding. To be noted: all C = PP-dC (5-position), all U = Nap-dU (5-position); aptamer identity per figure legend; text names 11733-198; purified recombinant protein; single-stranded DNA.
Data set [2] has as its system PCSK9 (Rattus norvegicus). Kind of data set: filter binding. To be noted: all C = PP-dC (5-position), all U = Nap-dU (5-position); aptamer identity per figure legend; text names 11733-198; purified recombinant protein; single-stranded DNA.
Data set [3] deals with PCSK9 (Homo sapiens). Kind of data set: inhibition of the protein. As to conditions: all C = PP-dC (5-position), all U = Nap-dU (5-position), purified recombinant protein, single-stranded DNA.

As to “AAGTTCCGGCCGCCTCGGGGTCCCTGCCAA [11730-6]”, the Kd with PCSK9 (Homo sapiens) [1] (all C = Nap-dC (5-position), T unmodified, radiolabeled filter binding) was found to be 0.1 nM.

On to “AACGUACUUUAAGGCCUAUUGAGGAAACUC [11733-44 (SL1063)]”, for which the Kd with PCSK9 (Homo sapiens) [1] (all C = PP-dC (5-position), all U = Nap-dU (5-position), 30-mer, paragraph names 11733-91_5 (11733-198)) came out at 0.0147 nM; in the data set on PCSK9 (Macaca mulatta) it was 0.0113 nM; with PCSK9 (Mus musculus), 0.077 nM; in data set [2], 0.165 nM. For the same sequence, in the data set on PCSK9 (Homo sapiens) [3] (blocks PCSK9 binding to LDL-R, room temperature, text names 11733-198), the EC50 is 2.1 nM. Besides, the IC50 in the data set with PCSK9 (Homo sapiens) [3] (inhibition of human wild-type PCSK9) stood at 2.8 nM.

“CGUGCUUUAAGACCUGUUGAGAUGCGCUCA [11733-198]”: the Kd with PCSK9 (Homo sapiens) [1] (all C = PP-dC (5-position), all U = Nap-dU (5-position), radiolabeled filter binding) was 0.07 nM.

“GUUAUCGCAAUGUGCGCCCGGGUGCCCGCC [11730-19]”: the Kd with PCSK9 (Homo sapiens) [1] (all C = Nap-dC (5-position), all U = Tyr-dU (5-position), radiolabeled filter binding) was 0.2 nM.
